# Most values lie at the floor of the assay. Slopes are relative: functional sequences can read slightly below zero.
# System: Saccharomyces cerevisiae PS128 hsf1 delta, HSF1(1-493) fusion
# Assay: growth estimate (transactivation domain function in HSF1 fusion, heat-shock survival) (a.u. (slope of normalised read count over time)); higher = stronger growth at 37°C, i.e. more transactivation activity
# Details: library: random library
# Protocol: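 Random 60-nt DNA library encoding peptides of up to 20 aa, fused to the C-terminus of yeast HSF1 residues 1-493 (C-terminal TAD deleted) and expressed from the native HSF1 promoter on a CEN plasmid in hsf1-deleted S. cerevisiae PS128. Cells were selected at 37°C on -trp 5-FOA plates for 0, 2, 4, 6 and 8 days and amplicons were sequenced. Growth estimate is the slope of a robust linear fit of total-sum-normalised read counts (normalised to the first time point) over time, using at least 2 replicates. Sequences are classed functional (TAD activity) above a threshold of -0.13, set from stop-codon control sequences.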
row,Substance,growth estimate
1,AAACRARRSC,< -0.25
2,AAES,< -0.25
3,AAEYWLGRPRNRR,-0.248
4,AAFIPTRITWLSKRAQSTAK,< -0.25
5,AAGKYWIIFGCSFRY,< -0.25
6,AAGSQYPIVRRCLRPR,< -0.25
7,AAGY,-0.245
8,AAIAGRGSPENLYLQVP,< -0.25
9,AAILPRTQYIYHLSGSTGHH,< -0.25
10,AAIPCQYSVIGRDTQG,< -0.25
11,AAIRCYLLSHAQL,-0.25
12,AALMPLPGVDD,< -0.25
13,AAMPLIRAQGQQMPGSRLGK,< -0.25
14,AANS,< -0.25
15,AAPHTMQAKYSDRYTTAHRS,-0.244
16,AAQFGYLRKAGSDESTGFSH,< -0.25
17,AARDDISLGGGVSNSRMVAT,< -0.25
18,AAREGITYTQQFCSVFGYWL,-0.151
19,AARLHFEVNKCNKSLWSNYG,< -0.25
20,AASRWAGSFFGHFREPEGPD,< -0.25
21,AASWESLMCFAHLTRRKASR,< -0.25
22,AATHGLNPMVWT,< -0.25
23,AATKIVL,< -0.25
24,AAVHAERVDIAGES,< -0.25
25,AAVL,< -0.25

row,Substance,growth estimate
1,AAVRLKHGTI,< -0.25
2,AAVSRNRQRGLVCTLTS,-0.245
3,AAWLPDTDPMGLAQIGSYAR,< -0.25
4,ACCESYGGSS,< -0.25
5,ACDKRLSR,< -0.25
6,ACDRLFR,< -0.25
7,ACIHSGR,-0.239
8,ACIQSRSWEGDFRLADNYLK,< -0.25
9,ACIRVVAFSLMRMTHKIAGR,< -0.25
10,ACIYEQIGRFWLSGLTRRGD,< -0.25
11,ACKPSL,< -0.25
12,ACLGKALHGVILVLRAG,< -0.25
13,ACLGRGRSRSGLYA,< -0.25
14,ACLVARILEGGPLLMRAQ,< -0.25
15,ACRTRLVECECLVFRCEQRH,< -0.25
16,ACRYSFSGGERVTTRTGPGI,< -0.25
17,ACVEAW,< -0.25
18,ACY,< -0.25
19,ADAVINGCTLERIVLSQRGS,< -0.25
20,ADDAPGGWAT,< -0.25
21,ADEKNTRLVTWEGRTVSHWG,< -0.25
22,ADEVGHYL,< -0.25
23,ADGDSNHTLHTALQYSGGIH,< -0.25
24,ADGPLFNG,< -0.25
25,ADGTQ,< -0.25

row,Substance,growth estimate
1,ADK,< -0.25
2,ADKGERYLYDMVSVAGLNCG,< -0.25
3,ADLCPGRFSSSLALFSASRS,< -0.25
4,ADLGLD,< -0.25
5,ADLNVECCAATNTVTYTYLA,< -0.25
6,ADLQKRCMDAIVLYRGRFAW,-0.246
7,ADLRTMSNYLRSDVGALNAR,< -0.25
8,ADPGSWFFK,-0.228
9,ADPQTLHRSLIHWPRYLTGM,< -0.25
10,ADRFQVMAIKTLCGQHASRV,< -0.25
11,ADRRRLVILLQNLAWNACRH,< -0.25
12,ADRWITSLVPHPIHLARKL,< -0.25
13,ADSCTEWEPRIVTFKT,< -0.25
14,ADV,< -0.25
15,ADVLRYSYGDEHARPNDNGL,< -0.25
16,ADVRVRSCGLGTAPRMVICK,< -0.25
17,ADWQVGLIQ,< -0.25
18,AEALAIAPAAACLNGGANRR,< -0.25
19,AECADGKRPPGLVASRG,-0.198
20,AEDH,< -0.25
21,AEELGEQVWLFTAAGPPRAS,-0.193
22,AEESAFRGVPYR,< -0.25
23,AEETHPHYINGGGARRGQRG,< -0.25
24,AEFYRVMCRIYTGAGRVHHF,< -0.25
25,AEGGSWIWWVSD,< -0.25

row,Substance,growth estimate
1,AEGRIELTR,< -0.25
2,AEGV,< -0.25
3,AEICGRIMRDLQYGPQRRS,< -0.25
4,AEIHDYADA,< -0.25
5,AEIQLAAGRLQNHRLATRMG,< -0.25
6,AEKRPTTRLLLMPRLPNDSP,< -0.25
7,AELHKQCPCRVSI,< -0.25
8,AELNIVAFVKPITYAPTRGL,< -0.25
9,AELQEFQLSNACQLEPYSAI,< -0.25
10,AEMQEPSSCSFPMQRVVLSF,< -0.25
11,AENRFGYRFNEVG,< -0.25
12,AEPTCGK,-0.243
13,AEQSRR,-0.243
14,AEQVQGTPRNKGPGIV,< -0.25
15,AERICTLHGPRAKGPYVRSP,< -0.25
16,AERNQSTFGRRFRRTGESSE,< -0.25
17,AERRWICGA,< -0.25
18,AESQRPLQRSECLS,< -0.25
19,AESVARNR,< -0.25
20,AESVWWSSMPRATQRRLPLH,< -0.25
21,AETPRH,< -0.25
22,AETRVV,< -0.25
23,AETTFLTRMAACRMSFPIVW,-0.25
24,AEVETGGHIADGERAAS,< -0.25
25,AEYPGGKGTSNKESCHQPTI,< -0.25

row,Substance,growth estimate
1,AEYTTYLDLSSRFLASGLTR,< -0.25
2,AFAECAASGADGNTKF,< -0.25
3,AFDRSLRYRELLERCNRLKM,< -0.25
4,AFEGLDAHF,< -0.25
5,AFELVL,< -0.25
6,AFFSAVFIGSVSTVMFIKDR,-0.0144
7,AFGHADVI,< -0.25
8,AFGVIGADGEIYALG,< -0.25
9,AFHVKRTNRRPT,< -0.25
10,AFKV,-0.243
11,AFLKRK,< -0.25
12,AFMSPRVLRPSA,< -0.25
13,AFPKSRLSLIWDRARDLAM,< -0.25
14,AFPRT,< -0.25
15,AFRILTRIRKTVSCLQRIYA,< -0.25
16,AFRMKIKQNFKC,< -0.25
17,AFRQTRVSRR,< -0.25
18,AFS,< -0.25
19,AFTRVEEY,< -0.25
20,AFVMTGLDLRASTLFTPFTT,< -0.25
21,AGADRVRSCET,< -0.25
22,AGAKCHKRLNGGYTAWGTRS,< -0.25
23,AGAQHPLRHRITP,< -0.25
24,AGARGPLLQAPMSWFRQFVT,< -0.25
25,AGAVTAQTRIFVLQT,< -0.25

row,Substance,growth estimate
1,AGCRS,< -0.25
2,AGCVSPQGE,< -0.25
3,AGDFI,< -0.25
4,AGDHAHWLFKPASVN,< -0.25
5,AGDLTGIYHC,< -0.25
6,AGDQCQDL,< -0.25
7,AGDVMGATPLSRASAPLSNT,< -0.25
8,AGENDPTAPHPRHAPW,< -0.25
9,AGEWRPLVSNRSPTGVGGLE,< -0.25
10,AGFGAPSATRASQLCAAIGA,< -0.25
11,AGFSRSPRVLD,< -0.25
12,AGFVEGYNYSVIGSRVACSG,< -0.25
13,AGGCDWFLETERRVPNLCRP,< -0.25
14,AGGCE,-0.197
15,AGGGTGQGTSSIQVRSLRRR,< -0.25
16,AGGLILQAWRAFGITMGCCS,< -0.25
17,AGGLTLHSGKPYTMDLTYQT,< -0.25
18,AGIACGLNGCPYQVAGLGQP,< -0.25
19,AGIQ,-0.243
20,AGIQPQVDPGSGDPYNAELT,< -0.25
21,AGIRLIILGRTTRIRKDRWH,< -0.25
22,AGKASFLVQEQPRRGACAEE,< -0.25
23,AGKGV,< -0.25
24,AGLRHCLCTVGV,< -0.25
25,AGLRSHLLLVPKCCQLNTSA,< -0.25

row,Substance,growth estimate
1,AGLSRPFECGDLGMVRIVPI,< -0.25
2,AGLTGNGSGQEGLEPVVTPC,< -0.25
3,AGLV,< -0.25
4,AGMGLHTYIISGGCGDPMYQ,< -0.25
5,AGNKTGRYVGCTGGFRYERS,< -0.25
6,AGNTCA,< -0.25
7,AGQGLPGFVSN,< -0.25
8,AGQL,< -0.25
9,AGQQARISCTLVRTYVLRRV,< -0.25
10,AGRGC,< -0.25
11,AGRGLPRGF,< -0.25
12,AGRKD,< -0.25
13,AGRNNRGDRIRNRLPSDYSR,< -0.25
14,AGRPAL,< -0.25
15,AGRPLITRQNFLNN,-0.243
16,AGRTKGHVLTSTQLTVPRPN,< -0.25
17,AGRWT,< -0.25
18,AGRYMTT,< -0.25
19,AGSEPWEFT,< -0.25
20,AGSEWVSYINGVWGRMNFKF,< -0.25
21,AGSGN,< -0.25
22,AGSKLQREFPTLPWVVYDGP,< -0.25
23,AGSKRIQPAVSDKIHFVKSR,< -0.25
24,AGSKVMAGTRAQHSPTCVDV,< -0.25
25,AGSVQGDRRHGQT,< -0.25

# Some values from the results shown.
# AGQL | growth estimate: < -0.25
# AGSKVMAGTRAQHSPTCVDV | growth estimate: < -0.25
# AGSEWVSYINGVWGRMNFKF | growth estimate: < -0.25
# AGSEPWEFT | growth estimate: < -0.25
# AGSKLQREFPTLPWVVYDGP | growth estimate: < -0.25
# AGMGLHTYIISGGCGDPMYQ | growth estimate: < -0.25

# Going on with the list:

row,Substance,growth estimate
1,AGSVRQLRASGHTGRRALPP,< -0.25
2,AGSYRF,< -0.25
3,AGTKIEHVVSGPLDLSRFKT,< -0.25
4,AGTLPSSIVVGRSLIQLFV,< -0.25
5,AGTQPRMPSPAEMDCIWPGF,< -0.25
6,AGTTEMGGTRASIRRTISAV,< -0.25
7,AGTTSVYGQYMS,< -0.25
8,AGTVSSCNVTPRPP,< -0.25
9,AGTYRLRGDRP,< -0.25
10,AGVNL,< -0.25
11,AGVPPYEEGGKK,< -0.25
12,AGVSCKWDEVGTDVVLWMVR,< -0.25
13,AGVSWRRAEWSETKTLASHA,< -0.25
14,AGWDRA,< -0.25
15,AGWLDLQPGLSRLTPVADPV,< -0.25
16,AGWNGHSHFVRRVQTEVT,< -0.25
17,AGYEKLLYSAVCARSDH,< -0.25
18,AHARDAVYRQVPPASLPRSV,< -0.25

# A different layout for part of the listing above:
row | Substance | growth estimate
1 | AGSVRQLRASGHTGRRALPP | < -0.25
10 | AGVNL | < -0.25
12 | AGVSCKWDEVGTDVVLWMVR | < -0.25

# Source: the supplement of paper PMC5949888
